What follows is the remainder of the data, with few or none of the targets with a hit. This is a noisy data set. The entries are a selection whose mix differs from that of the whole data set.

Sequences of proteins named here, by UniProt entry; tags and fusion partners are left off. A change or cut given only in a name is not applied to a line headed by its entry.
UniProt Q63ZY3: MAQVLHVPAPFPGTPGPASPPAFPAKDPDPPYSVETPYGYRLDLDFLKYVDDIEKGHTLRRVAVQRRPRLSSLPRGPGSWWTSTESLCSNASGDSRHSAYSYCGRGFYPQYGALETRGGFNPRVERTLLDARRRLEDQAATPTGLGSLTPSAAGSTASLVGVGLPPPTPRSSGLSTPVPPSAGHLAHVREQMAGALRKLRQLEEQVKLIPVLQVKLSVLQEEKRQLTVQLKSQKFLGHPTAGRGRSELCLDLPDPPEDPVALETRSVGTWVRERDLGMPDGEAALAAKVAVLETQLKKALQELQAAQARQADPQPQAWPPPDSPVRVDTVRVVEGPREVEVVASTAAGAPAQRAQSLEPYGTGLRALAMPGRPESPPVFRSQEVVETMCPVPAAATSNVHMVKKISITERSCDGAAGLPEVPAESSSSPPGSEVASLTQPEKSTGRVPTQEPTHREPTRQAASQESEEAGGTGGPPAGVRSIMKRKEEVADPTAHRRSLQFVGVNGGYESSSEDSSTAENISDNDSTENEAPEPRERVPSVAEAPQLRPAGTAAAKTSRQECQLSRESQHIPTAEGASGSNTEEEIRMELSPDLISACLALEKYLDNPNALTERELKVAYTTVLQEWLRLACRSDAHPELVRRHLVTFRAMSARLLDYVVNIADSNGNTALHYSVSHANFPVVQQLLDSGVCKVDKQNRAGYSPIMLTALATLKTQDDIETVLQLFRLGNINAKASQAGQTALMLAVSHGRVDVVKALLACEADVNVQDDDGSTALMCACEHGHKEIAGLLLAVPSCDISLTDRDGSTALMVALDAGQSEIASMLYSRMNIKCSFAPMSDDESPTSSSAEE
UniProt Q6NXT1: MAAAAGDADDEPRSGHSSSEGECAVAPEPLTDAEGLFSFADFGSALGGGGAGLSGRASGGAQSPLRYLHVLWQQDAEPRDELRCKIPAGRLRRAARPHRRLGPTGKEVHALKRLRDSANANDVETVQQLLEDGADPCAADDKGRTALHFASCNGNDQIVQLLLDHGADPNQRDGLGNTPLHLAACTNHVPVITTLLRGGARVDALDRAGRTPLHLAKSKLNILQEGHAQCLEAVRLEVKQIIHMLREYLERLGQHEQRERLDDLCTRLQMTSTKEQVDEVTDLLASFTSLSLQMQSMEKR
UniProt Q5H9R7: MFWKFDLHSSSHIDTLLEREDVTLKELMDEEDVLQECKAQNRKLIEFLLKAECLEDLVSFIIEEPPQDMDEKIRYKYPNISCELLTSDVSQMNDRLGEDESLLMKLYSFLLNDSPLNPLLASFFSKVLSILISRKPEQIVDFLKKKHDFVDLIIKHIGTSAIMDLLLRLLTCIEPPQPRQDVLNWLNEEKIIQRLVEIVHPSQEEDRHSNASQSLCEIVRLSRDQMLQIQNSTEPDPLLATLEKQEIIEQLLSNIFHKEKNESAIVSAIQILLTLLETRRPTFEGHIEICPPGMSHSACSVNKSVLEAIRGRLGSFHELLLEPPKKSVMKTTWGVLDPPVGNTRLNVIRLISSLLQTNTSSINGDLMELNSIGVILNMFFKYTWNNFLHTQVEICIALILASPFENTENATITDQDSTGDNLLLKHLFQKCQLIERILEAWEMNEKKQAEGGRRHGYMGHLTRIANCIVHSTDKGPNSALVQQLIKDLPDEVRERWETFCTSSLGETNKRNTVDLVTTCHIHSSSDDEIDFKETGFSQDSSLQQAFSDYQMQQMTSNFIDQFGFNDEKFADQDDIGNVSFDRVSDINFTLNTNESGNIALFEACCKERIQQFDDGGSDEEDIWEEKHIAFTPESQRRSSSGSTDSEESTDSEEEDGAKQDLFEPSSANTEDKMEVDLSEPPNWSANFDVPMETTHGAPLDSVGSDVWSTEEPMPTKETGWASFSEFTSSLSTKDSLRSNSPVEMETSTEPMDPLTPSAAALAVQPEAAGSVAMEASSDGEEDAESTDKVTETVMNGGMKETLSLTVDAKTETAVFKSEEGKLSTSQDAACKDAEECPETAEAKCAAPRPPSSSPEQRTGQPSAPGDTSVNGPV
UniProt Q6AI12: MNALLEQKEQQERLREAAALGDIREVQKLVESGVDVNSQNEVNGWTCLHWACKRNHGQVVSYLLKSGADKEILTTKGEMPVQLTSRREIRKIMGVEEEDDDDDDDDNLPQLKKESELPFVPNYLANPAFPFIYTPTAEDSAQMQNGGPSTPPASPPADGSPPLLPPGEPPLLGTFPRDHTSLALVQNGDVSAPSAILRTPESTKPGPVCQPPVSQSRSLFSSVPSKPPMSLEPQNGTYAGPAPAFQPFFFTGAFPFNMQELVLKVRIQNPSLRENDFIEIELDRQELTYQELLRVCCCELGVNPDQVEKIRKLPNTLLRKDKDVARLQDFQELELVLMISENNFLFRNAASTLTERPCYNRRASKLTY
UniProt Q5GLZ8: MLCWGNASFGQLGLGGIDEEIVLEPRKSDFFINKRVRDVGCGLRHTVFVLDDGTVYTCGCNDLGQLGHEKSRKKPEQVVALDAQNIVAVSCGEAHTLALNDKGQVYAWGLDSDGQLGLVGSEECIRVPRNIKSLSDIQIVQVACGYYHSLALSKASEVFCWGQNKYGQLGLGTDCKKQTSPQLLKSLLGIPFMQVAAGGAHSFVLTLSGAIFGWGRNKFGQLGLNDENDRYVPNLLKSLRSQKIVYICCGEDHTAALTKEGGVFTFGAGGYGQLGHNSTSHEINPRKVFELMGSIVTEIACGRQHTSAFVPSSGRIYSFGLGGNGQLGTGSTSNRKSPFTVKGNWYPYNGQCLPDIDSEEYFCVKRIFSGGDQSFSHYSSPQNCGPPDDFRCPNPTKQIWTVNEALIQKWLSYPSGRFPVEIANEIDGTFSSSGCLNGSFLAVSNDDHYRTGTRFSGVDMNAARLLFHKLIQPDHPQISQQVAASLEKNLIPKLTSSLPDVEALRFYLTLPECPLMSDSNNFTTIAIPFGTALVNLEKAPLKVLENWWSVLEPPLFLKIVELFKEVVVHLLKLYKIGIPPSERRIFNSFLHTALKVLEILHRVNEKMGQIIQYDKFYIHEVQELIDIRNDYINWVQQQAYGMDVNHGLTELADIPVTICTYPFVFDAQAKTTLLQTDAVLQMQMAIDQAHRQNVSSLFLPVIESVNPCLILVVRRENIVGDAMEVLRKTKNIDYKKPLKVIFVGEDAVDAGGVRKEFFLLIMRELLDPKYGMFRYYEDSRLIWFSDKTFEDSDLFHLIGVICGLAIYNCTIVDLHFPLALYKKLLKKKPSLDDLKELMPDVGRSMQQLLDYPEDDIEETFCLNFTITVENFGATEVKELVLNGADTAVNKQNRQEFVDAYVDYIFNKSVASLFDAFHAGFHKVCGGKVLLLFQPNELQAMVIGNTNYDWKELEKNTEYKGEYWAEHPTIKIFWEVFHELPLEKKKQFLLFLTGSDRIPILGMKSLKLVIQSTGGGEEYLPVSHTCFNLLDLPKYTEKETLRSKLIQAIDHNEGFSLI
UniProt Q6ZSJ8: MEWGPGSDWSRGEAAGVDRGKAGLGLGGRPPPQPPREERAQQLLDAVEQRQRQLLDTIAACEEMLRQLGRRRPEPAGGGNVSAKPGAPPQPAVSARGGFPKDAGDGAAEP
UniProt Q6ZRI6: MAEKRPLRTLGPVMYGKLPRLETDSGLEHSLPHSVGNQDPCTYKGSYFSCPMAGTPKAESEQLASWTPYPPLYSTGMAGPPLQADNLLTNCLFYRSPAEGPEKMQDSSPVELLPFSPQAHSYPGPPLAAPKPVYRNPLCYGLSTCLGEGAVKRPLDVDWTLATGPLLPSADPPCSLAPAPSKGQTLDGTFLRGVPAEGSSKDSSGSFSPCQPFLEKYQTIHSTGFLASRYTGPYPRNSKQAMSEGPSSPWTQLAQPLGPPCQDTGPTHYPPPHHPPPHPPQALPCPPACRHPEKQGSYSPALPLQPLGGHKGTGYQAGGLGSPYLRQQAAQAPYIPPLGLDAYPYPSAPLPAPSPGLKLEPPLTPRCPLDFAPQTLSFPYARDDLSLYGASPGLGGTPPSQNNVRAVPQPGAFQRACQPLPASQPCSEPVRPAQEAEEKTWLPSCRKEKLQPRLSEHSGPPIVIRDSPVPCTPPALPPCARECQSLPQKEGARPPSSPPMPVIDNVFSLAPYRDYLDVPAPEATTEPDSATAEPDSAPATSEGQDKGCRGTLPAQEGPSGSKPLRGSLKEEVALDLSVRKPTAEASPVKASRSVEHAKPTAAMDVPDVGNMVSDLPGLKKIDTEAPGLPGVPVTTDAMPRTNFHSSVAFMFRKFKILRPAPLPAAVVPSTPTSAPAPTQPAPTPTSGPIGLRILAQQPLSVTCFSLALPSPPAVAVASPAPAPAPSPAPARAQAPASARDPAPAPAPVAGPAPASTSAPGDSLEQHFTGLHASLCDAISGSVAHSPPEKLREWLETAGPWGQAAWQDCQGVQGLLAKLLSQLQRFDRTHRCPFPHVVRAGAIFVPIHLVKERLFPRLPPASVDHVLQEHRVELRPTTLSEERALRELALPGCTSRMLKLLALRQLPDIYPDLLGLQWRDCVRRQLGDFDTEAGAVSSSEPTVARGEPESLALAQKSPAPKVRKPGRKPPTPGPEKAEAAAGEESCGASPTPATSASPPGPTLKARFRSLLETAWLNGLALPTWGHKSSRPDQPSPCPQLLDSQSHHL
UniProt Q5TFE4: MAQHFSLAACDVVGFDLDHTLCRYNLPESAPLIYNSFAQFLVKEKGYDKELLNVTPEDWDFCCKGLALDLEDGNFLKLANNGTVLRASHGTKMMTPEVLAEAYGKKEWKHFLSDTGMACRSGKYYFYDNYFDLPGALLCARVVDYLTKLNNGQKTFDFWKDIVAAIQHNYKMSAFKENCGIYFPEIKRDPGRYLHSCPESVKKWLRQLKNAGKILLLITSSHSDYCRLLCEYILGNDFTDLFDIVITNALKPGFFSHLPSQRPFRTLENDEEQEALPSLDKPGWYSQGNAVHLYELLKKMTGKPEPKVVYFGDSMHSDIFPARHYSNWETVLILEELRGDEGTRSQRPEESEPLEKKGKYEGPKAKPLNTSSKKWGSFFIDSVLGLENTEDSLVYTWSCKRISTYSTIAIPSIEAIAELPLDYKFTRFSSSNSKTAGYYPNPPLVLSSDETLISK
UniProt Q5RKV6, whole entry: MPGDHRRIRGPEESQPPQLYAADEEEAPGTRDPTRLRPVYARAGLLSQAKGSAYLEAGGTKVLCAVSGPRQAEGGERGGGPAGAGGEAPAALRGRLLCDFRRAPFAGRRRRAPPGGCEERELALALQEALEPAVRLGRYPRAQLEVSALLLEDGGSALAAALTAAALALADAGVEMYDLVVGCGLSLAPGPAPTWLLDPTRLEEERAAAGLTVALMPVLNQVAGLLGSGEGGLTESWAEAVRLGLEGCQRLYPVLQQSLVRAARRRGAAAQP
UniProt Q68D10: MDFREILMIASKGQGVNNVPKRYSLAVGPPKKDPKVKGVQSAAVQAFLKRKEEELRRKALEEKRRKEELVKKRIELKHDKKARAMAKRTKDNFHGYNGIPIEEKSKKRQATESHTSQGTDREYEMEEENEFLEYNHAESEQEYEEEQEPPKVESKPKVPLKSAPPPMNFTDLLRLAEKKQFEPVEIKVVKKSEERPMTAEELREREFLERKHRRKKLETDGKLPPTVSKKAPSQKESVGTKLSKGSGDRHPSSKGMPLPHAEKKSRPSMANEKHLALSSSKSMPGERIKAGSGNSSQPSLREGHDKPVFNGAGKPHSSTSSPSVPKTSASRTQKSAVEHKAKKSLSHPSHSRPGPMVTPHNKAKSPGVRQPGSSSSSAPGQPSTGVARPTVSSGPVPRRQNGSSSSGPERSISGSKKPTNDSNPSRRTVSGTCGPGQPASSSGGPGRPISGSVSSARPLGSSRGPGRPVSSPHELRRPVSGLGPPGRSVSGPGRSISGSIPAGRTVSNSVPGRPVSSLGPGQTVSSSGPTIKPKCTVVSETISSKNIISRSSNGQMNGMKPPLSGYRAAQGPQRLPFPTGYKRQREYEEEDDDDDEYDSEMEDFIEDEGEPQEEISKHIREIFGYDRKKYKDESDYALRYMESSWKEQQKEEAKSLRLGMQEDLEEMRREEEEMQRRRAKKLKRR
UniProt Q6P6C2: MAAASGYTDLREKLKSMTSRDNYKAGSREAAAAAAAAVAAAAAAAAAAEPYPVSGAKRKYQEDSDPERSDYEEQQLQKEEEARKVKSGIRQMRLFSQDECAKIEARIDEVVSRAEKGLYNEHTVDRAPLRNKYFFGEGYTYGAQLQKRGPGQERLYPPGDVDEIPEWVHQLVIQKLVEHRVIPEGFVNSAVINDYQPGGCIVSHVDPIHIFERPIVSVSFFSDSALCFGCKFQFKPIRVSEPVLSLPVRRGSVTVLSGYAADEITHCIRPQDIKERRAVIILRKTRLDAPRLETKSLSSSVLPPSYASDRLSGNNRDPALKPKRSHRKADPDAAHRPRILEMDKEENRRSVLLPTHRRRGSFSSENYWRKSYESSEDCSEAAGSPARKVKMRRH

Compound in this assay: COC(=O)/C=C/c1ccccc1 [methyl cinnamate]
The assay is described as follows: log2 ratio of iodoacetamide-alkyne labeling of the cysteine site, DMSO over compound (competition); higher = stronger covalent engagement of the cysteine by the compound, active = 1 or more. As to conditions: 500 µM; treatment time 1 h; system: HEK293T cell lysate. In short, it runs like this:
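HEK293T lysate (2 mg/mL) was treated with DMSO or electrophile (500 µM, 1 h, ambient temperature), then iodoacetamide alkyne (1 h), clicked to sCIP-TMT reagents, pooled, trypsin-digested overnight at 37 °C, streptavidin-enriched and acid-eluted. Peptides were run on Orbitrap Eclipse LC-MS/MS with FAIMS and quantified in FragPipe. The log2 competition ratio per cysteine is mean control-channel over mean compound-channel reporter intensity. Duplicate channels and three replicates were used, and cysteines quantified in only one replicate were excluded.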
As to KANK2 C249 (UniProt Q63ZY3), the “log2 ratio of iodoacetamide-alkyne labeling” value (shortened to “log2 ratio”) was inactive: 0.135.

RSBN1L C10 (UniProt Q6PCB5): the “log2 ratio” value is inactive: 0.13. For ATAD2 C1246 (UniProt Q6PL18), the “log2 ratio” value is inactive: 0.184.

For the target ANKRD54 C23 (UniProt Q6NXT1), the “log2 ratio” value is inactive: 0.306. The same measure for ANGEL2 C158 (UniProt Q5VTE6): inactive: -0.176. Next, UniProt Q5H9R7_C467: inactive: -0.00292; ANKRD40 C358 (UniProt Q6AI12): inactive: 0.328. Next, USP34 C741 (UniProt Q70CQ2): inactive: 0.0998. For FAM199X C235 (UniProt Q6PEV8), the “log2 ratio” value was inactive: 0.0165. Next, SNAP47 C369 (UniProt Q5SQN1): inactive: 0.214; ZNF318 C242 (UniProt Q5VUA4): inactive: -0.0335. On to HERC4 C60 (UniProt Q5GLZ8), for which the “log2 ratio” value was inactive: 0.221. Next, GIGYF2 C573 (UniProt Q6Y7W6): inactive: 0.292; C1orf122 C61 (UniProt Q6ZSJ8): inactive: 0.0853.

On to C15orf39 C367 (UniProt Q6ZRI6), for which the “log2 ratio” value is inactive: 0.503. The same measure for NT5DC1 C63 (UniProt Q5TFE4): inactive: 0.279; for PRPF8 C2144 (UniProt Q6P2Q9): inactive: 0.282; for DENND4C C1105 (UniProt Q5VZ89): inactive: 0.128. Consider EXOSC6 C117 (UniProt Q5RKV6), for which the “log2 ratio” value was inactive: 0.00507. For the target SPTY2D1 C433 (UniProt Q68D10), the “log2 ratio” value is inactive: 0.333.

For the target ALKBH5 C267 (UniProt Q6P6C2), the “log2 ratio” value was inactive: 0.074.

The record behind these values is the supplement of paper PMC11006884.
